Experimental data published in US20190209659, “STABLE LIQUID FIBRINOGEN” (LABORATOIRE FRANCAIS DU FRACTIONNEMENT ET DES …, published 2019).
Negatives hold for the conditions tested.

System: fibrinogen (plasma) (Homo sapiens)
Experiment: SPR
Settings: 5' biotin-triethylene glycol (SPR), 5' amino-C6 spacer and 3' inverted dT (affinity support), purified native protein, single-stranded DNA

Row | Sequence | binding result (pH above 6.8: not bound, binding decreases as pH rises from 6.3, variant of SEQ ID NO 1 aptamer) | binding result (pH above 6.8: no binding, variant of SEQ ID NO 58 aptamer)
1 | GGGTCAATGCCAGGTCTCGGACCTGGAATCCGCCACCCGCATTAGAACCAGGGTTGAC [SEQ ID NO 66 (A5-1.9 base sequence)] | no binding | –
2 | CGCGTGTGGTTGGTAGGGCTAGGTGTATACGCAT [SEQ ID NO 67 (A5-2.9 base sequence)] | – | no binding
